Among the data in PubChem BioAssay AID248 (DTP/NCI, 2004) are T/C and survivor count values, retold here.

The list does not hold the whole screen: it gathers tests that were run many times, whatever their T/C, doses with no T/C, and many T/C values between a quarter and a half above the control. Other doses and runs of a compound stand elsewhere. T/C gives the treated animals as a percentage of the vehicle group. Some entries give survivors of the animals treated and no T/C: the source holds a T/C of zero for them, seemingly a mark for toxic or unscored doses. Some survivor counts are full or nearly so, which does not show that the dose was tolerated: the source hardly ever lists a survival T/C far under the control, and the zero likely stands for such cases as well. Counts of survivors are from the toxicity check (mostly the fifth day) where no day follows; animals may have died later. Schedules are NCI's codes, read here as Q, the interval in days (D) or hours (H), X, the number of doses. Some entries hold several experiments; the results are listed from low to high. Some molecules as drawn cover several salts, stereoisomers or complexes of the source; a dose is that of the sample tested. Signs of the kind (2×) give the number of equal values in this list. Where survival is the endpoint, this PubChem deposit counts one and a half times the control or more as active, and values a quarter to a half above the control carry no call in these data; other NCI protocols may use other cut-offs. Some T/C values carry the count of animals alive at the toxicity check (mostly the fifth day); where none is given, no animal had died by that day.

In the assay the test system is L1210 leukemia ip in BDF1 mice, survival T/C. As to the kind of experiment: NCI In Vivo Anticancer Drug Screen. Data for tumor model L1210 Leukemia (intraperitoneal) in B6D2F1 (BDF1) mice. The note with it: T/C endpoint: mean survival time, higher T/C = longer survival.
[1] abbreviates: dose: 400.0 mg/kg/injection, schedule: Q01DX001 (ip), vehicle: carboxymethylcellulose (CMC).
The mark [2] stands for this setting: dose: 2.0 mg/kg/injection, schedule: Q01DX001 (ip), vehicle: saline.
[3] abbreviates: dose: 400.0 mg/kg/injection, schedule: Q04DX002 (ip), vehicle: Klucel (hydroxypropylcellulose) (HPC).
Where [4] appears, read: dose: 50.0 mg/kg/injection, schedule: Q04DX003 (ip), vehicle: saline with Tween-80.
The mark [5] stands for this setting: dose: 100.0 mg/kg/injection, schedule: Q04DX003 (ip), vehicle: saline with Tween-80.
The mark [6] stands for this setting: dose: 200.0 mg/kg/injection, schedule: Q04DX003 (ip), vehicle: saline with Tween-80.
Setting [7] is: dose: 400.0 mg/kg/injection, schedule: Q04DX003 (ip), vehicle: saline with Tween-80.
[8] abbreviates: dose: 400.0 mg/kg/injection, schedule: Q04DX003 (ip), vehicle: Klucel (hydroxypropylcellulose) (HPC).
The mark [9] stands for this setting: dose: 150.0 mg/kg/injection, schedule: Q01DX001 (ip), vehicle: saline.
Setting [10] is: dose: 300.0 mg/kg/injection, schedule: Q01DX001 (ip), vehicle: saline.

In the case of `COc1cc(N(CCCl)CCCl)c(OC)cc1C=Nc1cccc(F)c1`, the T/C is 128 % of control (dose: 45.0 mg/kg/injection, schedule: Q01DX001 (ip), vehicle: Klucel (hydroxypropylcellulose) (HPC)); 126 % of control (dose: 45.0 mg/kg/injection, schedule: Q01DX009 (ip), vehicle: carboxymethylcellulose (CMC)); 126 % of control (dose: 50.0 mg/kg/injection, schedule: Q01DX001 (ip), vehicle: Klucel (hydroxypropylcellulose) (HPC)); 128 % of control (dose: 75.0 mg/kg/injection, schedule: Q01DX001 (ip), vehicle: Klucel (hydroxypropylcellulose) (HPC)); 135 % of control (dose: 100.0 mg/kg/injection, schedule: Q01DX001 (ip), vehicle: carboxymethylcellulose (CMC)); 133 and 140 % of control (dose: 115.0 mg/kg/injection, schedule: Q01DX001 (ip), vehicle: Klucel (hydroxypropylcellulose) (HPC)). For the same compound, the T/C is 127 % of control (dose: 145.0 mg/kg/injection, schedule: Q01DX001 (ip), vehicle: Klucel (hydroxypropylcellulose) (HPC)); 133 % of control (dose: 266.0 mg/kg/injection, schedule: Q01DX001 (ip), vehicle: carboxymethylcellulose (CMC)); 129 % of control under setting [1].
Consider `OC1CC2c3ccccc3C1c1cccc[n+]12` (stereo not drawn), for which the survivor count runs as follows: (dose: 75.0 mg/kg/injection, schedule: Q01DX009 (ip), vehicle: Klucel (hydroxypropylcellulose) (HPC)) 6 of 6; (dose: 115.0 mg/kg/injection, schedule: Q01DX009 (ip), vehicle: Klucel (hydroxypropylcellulose) (HPC)) 2 of 6; (dose: 170.0 mg/kg/injection, schedule: Q01DX009 (ip), vehicle: Klucel (hydroxypropylcellulose) (HPC)) 0 of 6; (dose: 200.0 mg/kg/injection, schedule: Q04DX003 (ip), vehicle: saline) 0 of 6; (dose: 400.0 mg/kg/injection, schedule: Q04DX003 (ip), vehicle: saline) 0 of 6.
As to `CO[C@H]1Nc2c(ccc(C)c2O)C(=O)N2C=C(/C=C/C(N)=O)C[C@@H]12`, the T/C was 125 % of control [5 of 6 alive] (dose: 0.2 mg/kg/injection, schedule: Q01DX015 (ip), vehicle: saline); 125 and 138 % of control (dose: 0.5 mg/kg/injection, schedule: Q01DX001 (ip), vehicle: saline); 145 % of control (dose: 0.89 mg/kg/injection, schedule: Q01DX001 (ip), vehicle: saline); 130 % of control (dose: 0.9 mg/kg/injection, schedule: Q01DX001 (ip), vehicle: saline); 134 % of control [3 of 4 alive] (dose: 1.3 mg/kg/injection, schedule: Q01DX001 (ip), vehicle: saline); 140, 142, 148 [5 of 6 alive], 151 % of control under setting [2]. For the same compound, the survivor count is 2 of 6 (dose: 0.33 mg/kg/injection, schedule: Q04DX003 (ip), vehicle: saline with Tween-80); 3 of 6 (dose: 0.66 mg/kg/injection, schedule: Q04DX003 (ip), vehicle: saline with Tween-80); 0 of 6 (dose: 1.0 mg/kg/injection, schedule: Q01DX015 (ip), vehicle: saline); 5 of 6 (dose: 1.0 mg/kg/injection, schedule: Q04DX003 (ip), vehicle: saline with Tween-80); 2 of 6 (dose: 1.5 mg/kg/injection, schedule: Q04DX003 (ip), vehicle: saline with Tween-80); 1 of 4 under setting [2]. Also, the survivor count (dose: 3.0 mg/kg/injection, schedule: Q01DX001 (ip), vehicle: saline) is on record as 1 of 6, 1 of 4, 2 of 4; the survivor count (dose: 4.0 mg/kg/injection, schedule: Q01DX001 (ip), vehicle: saline) was 0 of 4; the survivor count (dose: 5.0 mg/kg/injection, schedule: Q01DX001 (ip), vehicle: saline) was 0 of 4; the survivor count (dose: 8.0 mg/kg/injection, schedule: Q01DX001 (ip), vehicle: saline) is listed as 0 of 4; the survivor count (dose: 10.0 mg/kg/injection, schedule: Q01DX001 (ip), vehicle: saline) is 0 of 4; the survivor count (dose: 20.0 mg/kg/injection, schedule: Q01DX001 (ip), vehicle: saline) is 0 of 4. In addition, the survivor count was 0 of 4 (dose: 40.0 mg/kg/injection, schedule: Q01DX001 (ip), vehicle: saline); 0 of 4 (dose: 80.0 mg/kg/injection, schedule: Q01DX001 (ip), vehicle: saline); 0 of 4 (dose: 100.0 mg/kg/injection, schedule: Q01DX001 (ip), vehicle: saline); 0 of 4 (dose: 200.0 mg/kg/injection, schedule: Q01DX001 (ip), vehicle: saline); 0 of 4 (dose: 400.0 mg/kg/injection, schedule: Q01DX001 (ip), vehicle: saline).
Regarding `CCCNC(=O)Oc1cccc2cccnc12`, the survivor count runs as follows: (dose: 400.0 mg/kg/injection, schedule: Q01DX009 (ip), vehicle: Klucel (hydroxypropylcellulose) (HPC)) 2 of 6; under setting [3], 3 of 3 and 6 of 6.
In the case of `CCC(O)C[As](=O)(O)c1ccccc1` (stereo not drawn), the survivor count is, setting by setting: (dose: 25.0 mg/kg/injection, schedule: Q04DX003 (ip), vehicle: saline with Tween-80) 0 of 6; under setting [4], 0 of 6; under setting [5], 0 of 6 (2×); under setting [6], 0 of 6; under setting [7], 0 of 6.
Take `CC(=O)c1cc(C)[nH]c1C`: the survivor count runs as follows: (dose: 200.0 mg/kg/injection, schedule: Q01DX009 (ip), vehicle: saline sonified) 6 of 6; under setting [8], 0 of 6.
As to `CC1(C)CC(=O)C2C(C1)Nc1ccccc1NC2c1ccccc1[N+](=O)[O-]` (stereo not drawn), the survivor count (dose: 50.0 mg/kg/injection, schedule: Q04DX002 (ip), vehicle: Klucel (hydroxypropylcellulose) (HPC)) is on record as 3 of 3. Further, under setting [3], the T/C was 127 % of control.
Turning to `CCNC(=O)Nc1ccccc1`, under setting [3], the survivor count was 1 of 3.
With `c1ccc(N2CCNCC2)nc1`, the survivor count is, setting by setting: (dose: 75.0 mg/kg/injection, schedule: Q01DX001 (ip), vehicle: saline) 2 of 6; under setting [9], 0 of 6; under setting [10], 0 of 6.
Turning to `CN(C)N=Nc1ccccc1C(=O)NN`, the survivor count was 3 of 6 (dose: 150.0 mg/kg/injection, schedule: Q01DX009 (ip), vehicle: Klucel (hydroxypropylcellulose) (HPC)); 0 of 6 and 1 of 6 (dose: 300.0 mg/kg/injection, schedule: Q01DX009 (ip), vehicle: Klucel (hydroxypropylcellulose) (HPC)); 0 of 4 under setting [1].
On to `Cc1cccc(N2C(N)=NC(N)=NC2(C)C)c1`, for which the survivor count reads like this: (dose: 100.0 mg/kg/injection, schedule: Q04DX003 (ip), vehicle: Klucel (hydroxypropylcellulose) (HPC)) 2 of 6 and 5 of 6; under setting [9], 0 of 6; (dose: 200.0 mg/kg/injection, schedule: Q04DX003 (ip), vehicle: Klucel (hydroxypropylcellulose) (HPC)) 0 of 6; under setting [10], 1 of 6; under setting [8], 0 of 6.
For `Cc1ccc(S(=O)(=O)[O][Pb]([CH3])([CH3])[CH3])cc1`, the survivor count is 5 of 6 (dose: 12.5 mg/kg/injection, schedule: Q01DX009 (ip), vehicle: saline); 0 of 3 (dose: 100.0 mg/kg/injection, schedule: Q04DX002 (ip), vehicle: saline); 0 of 3 (dose: 200.0 mg/kg/injection, schedule: Q04DX002 (ip), vehicle: saline); 0 of 3 (dose: 400.0 mg/kg/injection, schedule: Q04DX002 (ip), vehicle: saline).
As for `CCN(CC)c1ccc(N)cc1`, the survivor count was 3 of 6 under setting [4], 0 of 6 under setting [5], 0 of 6 under setting [6] and 0 of 6 under setting [7].
